Source: article PMC12040169 (PLOS Biology, 2025)
The list shows a part of the results.

The compounds below were run on T1, CTL2-GFP (C. trachomatis L2/434/Bu, GFP-expressing). Conditions: bulk GFP, single well; 28.5 h, 10 µM; inhibitor.
T1 construct: L2/434/Bu, GFP-expressing
Parameters: species or system HeLa; Intracellular C. trachomatis growth in HeLa cells, bulk GFP fluorescence relative to DMSO
`C/C=N\n1c(CO)nnc1CO` [CBK034325] was tested, and the “% of control remaining” value was 121.263%.
With `O=C(NCC(c1ccccc1)c1c[nH]c2ccccc12)Nc1ccc(Cl)cc1` (centres unmarked) [CBK269147] the “% of control remaining” value was 106.259%.
With `O=C(NC1Cc2ccccc2C1)c1nc2ccccc2[nH]1` [CBK200361] the “% of control remaining” value was 135.465%.
With `Cc1cc(C(=O)N2CCN3C(=O)CCC32C)c(C2CC2)o1` (centres unmarked) [CBK282092] the “% of control remaining” value was 121.113%.
In the case of `Cc1ccc(O)c(NC(=O)COc2ccc(Cl)cc2)c1` [CBK268670], the “% of control remaining” value is reported as 97.3603%.
For `Cc1ccc([N+](=O)[O-])cc1NC(=O)C1Cc2ccccc2CN1C(=O)OCc1ccccc1` (centres unmarked) [CBK262463], the “% of control remaining” value was 69.7304%.
For `CN(C)C(=O)N1CCN(C(=O)c2cn(Cc3cccc(S(C)(=O)=O)c3)nn2)CC1` [CBK160969T], the “% of control remaining” value was 113.346%.
In the case of `COc1cnc(-c2ccccc2OC)c(NC(C)=O)n1` [CBK145259], the “% of control remaining” value is reported as 121.216%.
In the case of `O=C(CN1CCN(c2cc(-c3ccsc3)ncn2)CC1)N1CCCC1` [CBK091074], the “% of control remaining” value is reported as 184.759%.
`Cc1nc(C2CCCN(C(=O)c3ccncc3)C2)c2sccn12` (centres unmarked) [CBK285199] was tested, and the “% of control remaining” value was 106.926%.
With `O=C(CN1CCC(c2nc3ccccc3[nH]2)CC1)Nc1ccc(F)cc1` [CBK287720] the “% of control remaining” value was 95.46%.
For `COCCNc1nc(-c2cccc(F)c2)cn2ccnc12` [CBK066465], the “% of control remaining” value was 216.519%.
In the case of `O=[N+]([O-])c1ccccc1NCCNS(=O)(=O)c1ccccc1` [CBK263552], the “% of control remaining” value is reported as 100.955%.
With `COc1ccccc1-c1cnc2[nH]c(=O)n(CC3CCOCC3)c2n1` [CBK064286] the “% of control remaining” value was 99.5792%.
In the case of `CC(=O)Nc1ccc2n(c1=O)C[C@H]1C[C@@H]2CN(C(=O)COc2ccccc2)C1` [CBK289074], the “% of control remaining” value is reported as 133.258%.
In the case of `COc1ccc(-c2nc3ccc(OC)cc3[nH]2)cc1` [CBK000126], the “% of control remaining” value is reported as 132.673%.
For `Cn1c(N2CC[C@H](O)C2)nc2cc(C(=O)NC3CCNCC3)ccc21` [CBK306873], the “% of control remaining” value was 138.684%.
In the case of `O=S(=O)(Nc1nc2c(s1)CCCC2)c1ccc(Br)cc1` [CBK097787], the “% of control remaining” value is reported as 98.9724%.
In the case of `CN(C)CCn1ccnc1C1CCCN(C(=O)Cc2cccc(Cl)c2)C1` (centres unmarked) [CBK307272], the “% of control remaining” value is reported as 124.937%.
`COCCc1noc(CC2CCN(c3nc(C#N)c(Cl)s3)CC2)n1` [CBK304205] was tested, and the “% of control remaining” value was 112.666%.
With `Cc1cccn2cc(CC(=O)NCCNC(=O)OC(C)(C)C)nc12` [CBK306122] the “% of control remaining” value was 139.364%.
In the case of `CCCCOc1ccc(NC(=O)NCCC2=CCCCC2)cc1` [CBK043751], the “% of control remaining” value is reported as 51.797%.
`Cn1c(=O)c2c(nc(CN3CCC(Cc4ccccc4)CC3)n2CCN2CCOCC2)n(C)c1=O` [CBK269380] was tested, and the “% of control remaining” value was 91.2495%.
For `COc1ccc(-c2cc(C(=O)Nc3ccc4ncccc4c3)cnc2-c2ccccc2)cc1` [CBK036623], the “% of control remaining” value was 111.462%.
`CC1CCN(CCOCC(O)CNS(=O)(=O)O)CC1` (centres unmarked) [CBK261454N] was tested, and the “% of control remaining” value was 88.1542%.
`Cc1cccn2cc(CCNC(=O)N3CCOCC3C3CC3)nc12` (centres unmarked) [CBK304033] was tested, and the “% of control remaining” value was 103.632%.
`CC(C)N(Cc1nc(-c2ccc(Cl)cc2)no1)S(=O)(=O)c1cccc([N+](=O)[O-])c1` [CBK267050] was tested, and the “% of control remaining” value was 173.654%.
`Cc1ccc(NS(=O)(=O)c2cc(C(=O)O)ccc2Cl)cc1S(=O)(=O)N1CCOCC1` [CBK296954] was tested, and the “% of control remaining” value was 114.219%.
With `O=C(c1cccc(F)c1)N1CCCC1c1n[nH]cc1-c1ccncc1` (centres unmarked) [CBK283437] the “% of control remaining” value was 143.04%.
`COC(=O)CCc1sc(NC(=O)CSCC(=O)O)nc1-c1ccc(OC)cc1` [CBK296116] was tested, and the “% of control remaining” value was 158.885%.
`O=S(=O)(c1ccccc1)n1cc2c3c(cccc31)CN(CCO)C2` [CBK156333T] was tested, and the “% of control remaining” value was 101.012%.
With `CN1CCN(C(=O)c2ccc(-c3cncc(-c4cc5ccccc5[nH]4)n3)c(F)c2)CC1` [CBK144906] the “% of control remaining” value was 125.912%.
`Cc1cccc(CN(CC(C)(C)CN)C(=O)Nc2ccc(-c3ccccc3)cc2)n1` [CBK002453C] was tested, and the “% of control remaining” value was 83.1884%.
With `O=C(Nc1ccc(F)c(F)c1)NC1CCC2CN(CCOc3ccccc3)CC2C1` (centres unmarked) [CBK083365T] the “% of control remaining” value was 0%.
For `CCc1nn(CC(=O)N2CCCC2)c(=O)c2cc3sccc3n12` [CBK284028], the “% of control remaining” value was 166.652%.
For `CCOC(=O)c1sc(NS(=O)(=O)c2cccc(Cl)c2C)nc1-c1ccccc1` [CBK000749], the “% of control remaining” value was 127.13%.
In the case of `O=C(CS(=O)(=O)Cc1ccccc1)Nc1ccc(S(=O)(=O)N2CCOCC2)cc1` [CBK266658], the “% of control remaining” value is reported as 121.348%.
For `O=[N+]([O-])c1ccc(CN2CCN(c3nccnc3OCc3ccc(Cl)c(Cl)c3)CC2)cc1` [CBK083076T], the “% of control remaining” value was 123.76%.
`O=C(CCc1ccccc1)NC(=S)Nc1ccc(-c2nc3ccccc3[nH]2)cc1` [CBK267472] was tested, and the “% of control remaining” value was 122.664%.
With `Cc1nc(SCC(=O)O)nc(O)c1Oc1ccccc1` [CBK263621] the “% of control remaining” value was 95.0973%.
`COc1ccc(C)cc1NC(=O)N1CCC2(CC1)CC(=O)c1ccc(C)cc1O2` [CBK166520] was tested, and the “% of control remaining” value was 163.921%.
In the case of `N#CCCCN1CCC(Oc2nccnc2OCc2cccc(OCc3ccccc3)c2)CC1` [CBK161572], the “% of control remaining” value is reported as 96.2425%.
`CCCS(=O)(=O)N1CCCC(Cc2ccc(F)cc2F)(C(=O)OCC)C1` (centres unmarked) [CBK307221] was tested, and the “% of control remaining” value was 119.84%.
With `COCc1cn([C@H]2CO[C@H]3[C@@H]2OC[C@@H]3NC(=O)Nc2ccc(OC)cc2)nn1` [CBK289495] the “% of control remaining” value was 115.464%.
`Cc1cc(-c2cc(=O)n(Cc3ccc(F)cc3)nc2C2CC2)on1` [CBK284364] was tested, and the “% of control remaining” value was 39.4538%.
For `CC(C)(C)C1CCC(OC(=O)Cn2nnc3ccccc3c2=O)CC1` (centres unmarked) [CBK306408], the “% of control remaining” value was 99.2852%.
For `Nc1ncn(Cc2ccccc2)c2nc(SCc3ccccc3)nc1-2` [CBK025744], the “% of control remaining” value was 133.536%.
With `NC(=O)C1(N2CCCCC2)CCN(Cc2nc(O)c3ccccc3n2)CC1` [CBK265896] the “% of control remaining” value was 128.686%.
In the case of `c1ccc(CC2CCN(CCc3c[nH]c4ccccc34)CC2)cc1` [CBK126385], the “% of control remaining” value is reported as 134.024%.
`Cc1c(Cc2ccccc2)sc(NC(=O)c2cccnc2)c1C(N)=O` [CBK269851] was tested, and the “% of control remaining” value was 109.579%.
For `CC(C)Cn1c(=O)c(C(=O)Nc2cccc(Cl)c2)c(O)c2ccccc21` [CBK159967], the “% of control remaining” value was 160.451%.
In the case of `CC(=O)N[C@@H](Cc1c[nH]cn1)C(=O)N1CC[C@H]2NC(=O)[C@H](Cc3ccccc3)NC(=O)C3(C/C=C/C[C@H]2C1)CCOCC3` [CBK292206], the “% of control remaining” value is reported as 99.2457%.
With `Cc1ccc(C(Cn2cncc2-c2cn(C)nc2C)N(C)C)cc1` (centres unmarked) [CBK281896] the “% of control remaining” value was 139.66%.
With `Cc1ncc2c(n1)CCCC2NC(=O)c1ccccc1Cn1cncn1` (centres unmarked) [CBK306381] the “% of control remaining” value was 93.1199%.
For `NCCCOc1cc(N2CCCC2)ncn1` [CBK115285], the “% of control remaining” value was 114.967%.
In the case of `Cc1cc(C)cc(Oc2nccn3c(=O)[nH]nc23)c1` [CBK288451], the “% of control remaining” value is reported as 124.421%.
With `CC1CCc2c(sc(NC(=O)c3nc4ncccn4n3)c2C(N)=O)C1` (centres unmarked) [CBK267631] the “% of control remaining” value was 123.845%.
With `Cc1cc([N+](=O)[O-])nn1CCCC(=O)Nc1cccc(O)c1` [CBK268747] the “% of control remaining” value was 104.589%.
With `O=C(O)c1cccc(S(=O)(=O)Nc2ccccc2C(=O)NCc2ccccc2)c1` [CBK296697] the “% of control remaining” value was 147.704%.
For `Cc1cc(C[C@@H]2COC[C@H]2NCc2ccc(Cl)c(Cl)c2)on1` [CBK285400], the “% of control remaining” value was 126.394%.
In the case of `CCCc1ccc(S(=O)(=O)Nc2nc(-c3cccc([N+](=O)[O-])c3)cs2)cc1` [CBK000987], the “% of control remaining” value is reported as 110.033%.
For `Cc1cc(C)n2ncc(C(=O)N3CCCCC3c3ccccn3)c2n1` (centres unmarked) [CBK307257], the “% of control remaining” value was 120.152%.
`CCCN1CCCC(c2ccccc2O)C1` (centres unmarked) [CBK024365G] was tested, and the “% of control remaining” value was 109.01%.
For `COc1ccccc1-c1nnc2sc(-c3cnccn3)nn12` [CBK268428], the “% of control remaining” value was 125.915%.
In the case of `COc1cc(CNc2cc(-c3ccc(F)c(Cl)c3)nc3ccnn23)cc(OC)c1OC` [CBK037209], the “% of control remaining” value is reported as 95.8728%.
`CN1CCN(C(=O)CCc2nc(-c3ccc(Cl)cc3)no2)CC1` [CBK268304] was tested, and the “% of control remaining” value was 116.803%.
`O=C(O)CC(Cc1ccccc1)(C(=O)O)c1ccccc1` (centres unmarked) [CBK287133] was tested, and the “% of control remaining” value was 116.287%.
For `O=C1CC(c2ccc(S(=O)(=O)NCc3ccccc3)cc2)CN1` (centres unmarked) [CBK270155], the “% of control remaining” value was 136.792%.
In the case of `COc1ccc(-c2cc(C(F)(F)F)nc(SCC(=O)NN3CCN(C)CC3)n2)cc1` [CBK266115], the “% of control remaining” value is reported as 123.638%.
In the case of `COc1ccc(CN2CCN(c3ccc(F)cc3)CC2)cc1OCc1ccccc1` [CBK261894], the “% of control remaining” value is reported as 112.694%.
With `O=C1COc2ccccc2C/C=C/C[C@H]2CN(C(=O)c3noc4c3CCCC4)CC[C@H]2N1` [CBK292099] the “% of control remaining” value was 82.2855%.
For `COC(=O)c1cccc2c1ncc1c(=O)nc(N)sc12` [CBK291214], the “% of control remaining” value was 113.329%.
With `CC(=O)N1CCC2(CCCC[C@H]3CN(Cc4coc(C)n4)CC[C@@H]3NC(=O)CNC2=O)CC1` [CBK292165] the “% of control remaining” value was 158.981%.
With `Cc1nc2ccccc2c(C)c1CC(=O)N(C)Cc1cnn(C)c1` [CBK304895] the “% of control remaining” value was 102.864%.
For `NS(=O)(=O)c1ccc(NC(=O)CSc2ccc3ccccc3c2)cc1` [CBK268203], the “% of control remaining” value was 91.9643%.
`COc1ccccc1C1OC(=O)CC1C(=O)N1CCN(c2ccc(C(F)(F)F)cc2)CC1` (centres unmarked) [CBK091313] was tested, and the “% of control remaining” value was 107.113%.
With `Cn1c(CNc2ccc(C(=O)O)cc2)nc2ccccc21` [CBK262501] the “% of control remaining” value was 110.288%.
